Results deposited as PubChem BioAssay AID1259290 (Sanger Institute, 2017).
Aim: 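siRNA screen across the kinome seeking synthetic lethal partners for BYL719, cetuximab or trametinib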 (primary screen). Cells: human SNUC1 colorectal cancer cells. Reagent: siRNA pool against human genes. Challenge: anchor drugs BYL719 1 µM, cetuximab 5 µg/ml or trametinib 10 nM, or DMSO vehicle alone. Read-out: 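Viability averaged over replicates and scaled to non-targeting siRNA, robust z-score with no drug, and synergy scores by drug for BYL719, cetuximab and trametinib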. Scale: viability z-score, siRNA alone: higher = more viable cells; low values mean essential gene. Active means: 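a knock-down without drug scoring a robust z under -3 counts as essential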. Meaning of the calls: active = essential: knock-down alone cut viability (z below -3); inactive = no clear viability loss with knock-down alone.
Shown is an unselected part of 794 reagents tested. 9 of them (1.1%) count as active. 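Calls rest on knock-down alone, not drug synergy; synergy above 0.15 was grouped apart and does not affect calls.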 Not all columns of the deposit are shown. Not given: the amount of reagent, the time to read-out.

| gene | viability z-score, siRNA alone | call |
| --- | --- | --- |
| HIPK4 | 0.929 | inactive |
| TWF1 | 0.936 | inactive |
| SRMS | 0.936 | inactive |
| PRKAB2 | -0.381 | inactive |
| NTRK1 | 0.936 | inactive |
| PBK | -0.462 | inactive |
| NME5 | -1.82 | inactive |
| AXL | -2.02 | inactive |
| CUL1 | -0.525 | inactive |
| BRD4 | -1.65 | inactive |
| PTPN11 | -1.26 | inactive |
| EEF2K | -1.5 | inactive |
| JAK2 | -2.32 | inactive |
| ROR1 | 0.936 | inactive |
| TP53RK | -0.244 | inactive |
| PNKP | 0.936 | inactive |
| PANK3 | -0.00713 | inactive |
| MELK | 0.799 | inactive |
| ETNK1 | 0.756 | inactive |
| PSTK | 0.925 | inactive |
| MST1R | 0.936 | inactive |
| NTN4 | -1.58 | inactive |
| PAK3 | 0.827 | inactive |
| MAP3K19 | -2.45 | inactive |
| SIK3 | 0.792 | inactive |
| ULK3 | 0.663 | inactive |
| NEK9 | -0.524 | inactive |
| TEX14 | 0.936 | inactive |
| BLK | -0.367 | inactive |
| MYO3A | 0.296 | inactive |
| PRKG2 | -1 | inactive |
| CLK1 | 0.936 | inactive |
| DGUOK | -0.0187 | inactive |
| CDKN2B | -0.13 | inactive |
